For experiment [1], the target named is T1, MCFD2-FLAG (multiple coagulation factor deficiency 2) (UniProt Q8NI22).
T1 sequence: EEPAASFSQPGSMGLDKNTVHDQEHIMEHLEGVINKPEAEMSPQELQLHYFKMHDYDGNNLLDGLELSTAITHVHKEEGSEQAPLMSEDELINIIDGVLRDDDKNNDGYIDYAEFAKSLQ
The experiment is described as follows: co-IP; MCFD2-FLAG overexpressed in HEK293T cells expressing TPO-EGFP, 48 hours after transfection; anti-FLAG M2 magnetic beads then anti-EGFP blot; also GFP-Trap magnetic agarose then anti-FLAG blot.

Sequences of proteins named here, by UniProt entry; tags and fusion partners are left off. Residues count along the entry.
UniProt P40225, residues 22-353: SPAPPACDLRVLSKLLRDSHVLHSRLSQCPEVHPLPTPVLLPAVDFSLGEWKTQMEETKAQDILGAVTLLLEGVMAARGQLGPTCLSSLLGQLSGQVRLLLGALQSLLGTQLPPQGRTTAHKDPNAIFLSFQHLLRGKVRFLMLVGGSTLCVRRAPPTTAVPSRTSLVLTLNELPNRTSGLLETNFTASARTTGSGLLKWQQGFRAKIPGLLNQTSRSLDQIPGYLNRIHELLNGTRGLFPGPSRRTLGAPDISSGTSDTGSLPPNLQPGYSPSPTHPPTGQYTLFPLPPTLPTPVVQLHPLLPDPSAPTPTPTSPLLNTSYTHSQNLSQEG

Experiment [2] concerns the target T2, FLAG-tagged LMAN1 (lectin mannose-binding 1) (UniProt P49257).
T2 sequence: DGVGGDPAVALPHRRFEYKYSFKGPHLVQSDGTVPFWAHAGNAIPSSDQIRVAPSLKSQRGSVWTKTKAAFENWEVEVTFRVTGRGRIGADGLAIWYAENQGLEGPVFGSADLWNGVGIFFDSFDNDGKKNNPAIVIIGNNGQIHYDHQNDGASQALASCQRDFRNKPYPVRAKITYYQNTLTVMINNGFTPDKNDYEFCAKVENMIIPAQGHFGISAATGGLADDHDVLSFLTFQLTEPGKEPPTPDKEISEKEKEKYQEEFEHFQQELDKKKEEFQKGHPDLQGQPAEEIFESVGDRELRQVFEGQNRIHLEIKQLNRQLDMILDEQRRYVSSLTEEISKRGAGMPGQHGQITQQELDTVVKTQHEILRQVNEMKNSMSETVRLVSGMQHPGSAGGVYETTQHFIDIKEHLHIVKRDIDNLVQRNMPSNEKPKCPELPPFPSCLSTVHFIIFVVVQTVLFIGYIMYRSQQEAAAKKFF
Briefly: co-IP; LMAN1-FLAG and TPO-myc coexpressed in HEK293T; LMAN1 precipitated with anti-FLAG M2 agarose beads; blot with anti-myc.

Results are given in words; binding and its absence hold for the method and conditions named. In cells and extracts the contact can be indirect. Some binding calls cover weakened binding; strength is not graded here. Tags and fused reporters may be left off the sequences shown.

Turning to “TPO fused to EGFP (from UniProt P40225 22-353)”, in experiment [1], the binding entry is “no binding”.

For the substance “myc-tagged thrombopoietin (TPO) (from UniProt P40225 22-353)”, the binding result in experiment [2] is listed as “binds”.

For the origin of these results see PMC11665562.
